Measurements reported in PubChem BioAssay AID743454 (Peter MacCallum Cancer Centre, 2014)
The deposit covers about 18,000 reagents; below is an unselected part. 450 of them (2.5%) count as active. 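Single biological run; no consistent viability z cut-off exists, so the class columns, not z-scores, define the calls.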 Unmarked entries are inactive. Reagents against one gene are numbered here.

Assay: 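Knock-downs lowering viability or raising caspase 3/7 activity in vorinostat-treated resistant cells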 (primary screen)
Cell system: human HCT116-VR colon cancer cells, selected for vorinostat resistance
Reagents: siRNA pool against human genes, 40 nM siRNA pool
Duration: vorinostat for 24 h, read-out about 72 h after transfection
Treatment: vorinostat at 2.5 µM final
Read-out: 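Cell viability by CellTiter-Fluor and caspase 3/7 activity by luminescence, each scaled to mock wells per plate, duplicates averaged, then robust z-scored over all plates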
Reading the numbers: viability robust z-score: higher = more viable cells than screen typical; caspase robust z-score: higher = more caspase 3/7 activity than screen typical
Active means: 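a knock-down is a hit when classed RV1 or RV2 for lowered viability, or CA1 or CA2 for caspase activation; those lethal without drug were dropped; hits were retested singly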

The opening 4 records, to show the layout:
no.	gene	reagent	viability hit class	caspase hit class	viability robust z-score	caspase robust z-score
1	KRT32	1	no change	no change	0.68	4.26
2	SELENOI	1	no change	no change	0.38	-0.31
3	CDK9	1	no change	no change	-0.01	-0.22
4	ANAPC13	1	no change	no change	0.79	0.06

Results, from the first entry:
no.	gene	reagent	viability hit class	caspase hit class	viability robust z-score	caspase robust z-score
1	KRT32	1	no change	no change	0.68	4.26
2	SELENOI	1	no change	no change	0.38	-0.31
3	CDK9	1	no change	no change	-0.01	-0.22
4	ANAPC13	1	no change	no change	0.79	0.06
5	INSL4	1	no change	no change	1.96	-0.05
6	VIRMA	1	no change	no change	-1.26	-0.9
7	METTL18	1	no change	no change	-1.14	-0.2
8	TRIM26	1	no change	no change	-0.68	1.08
9	PLEKHG4B	1	no change	no change	-0.34	-0.16
10	DDX54	1	no change	no change	-1.38	-0.58
11	PSMB10	1	no change	no change	-0.58	1.84
12	MAP3K9	1	no change	no change	-1.75	-0.18
13	RASL10A	1	no change	no change	-0.62	-0.74
14	TYRO3	1	no change	no change	0.66	-0.29
15	RALGAPA1	1	no change	no change	-1.67	0.74
16	HERC2P3	1	no change	no change	0.62	0.78
17	LDHAL6A	1	no change	no change	-0.87	-1.19
18	C8orf34	1	no change	no change	0.32	-0.92
19	UGT1A9	1	no change	no change	-0.9	-0.92
20	RIMOC1	1	no change	no change	-1.4	-0.78
21	FAM234A	1	no change	no change	-1.17	0.55
22	PAQR8	1	no change	no change	-0.51	1.83
23	CCNT2	1	no change	no change	-0.3	0.7
24	SCGB1A1	1	no change	no change	-0.62	2.66
25	MRPL9	1	no change	no change	-1.19	-1
26	GRAMD2B	1	no change	no change	0.13	-0.45
27	TMEM192	1	no change	no change	0.37	-0.42
28	TBXT	1	no change	no change	-1.63	4.62
29	APLP1	1	no change	no change	0.96	0.58
30	ABHD17A	1	no change	no change	-2.33	4.06
31	NDEL1	1	no change	no change	-0.91	2.87
32	ZNF620	1	no change	no change	-0.37	-0.66
33	POLR1D	1	no change	no change	0.98	-1.16
34	DNAJB2	1	no change	no change	1.41	-0.12
35	FCRLB	1	no change	no change	0.43	-0.2
36	DUSP2	1	no change	no change	0.21	-0.68
37	TSPAN5	1	no change	no change	-0.26	0.3
38	TCP11L1	1	no change	no change	0.18	-0.03
39	AK9	1	no change	no change	-0.88	-0.52
40	AK9	2	no change	no change	-0.14	-0.27
41	AK9	3	no change	no change	-1.25	0.74
